These results are taken from PMC10949843.

Chains of the proteins cited; added tags and fusions are not shown. Residues count along the entry.
UniProt P52799, residues 28-333: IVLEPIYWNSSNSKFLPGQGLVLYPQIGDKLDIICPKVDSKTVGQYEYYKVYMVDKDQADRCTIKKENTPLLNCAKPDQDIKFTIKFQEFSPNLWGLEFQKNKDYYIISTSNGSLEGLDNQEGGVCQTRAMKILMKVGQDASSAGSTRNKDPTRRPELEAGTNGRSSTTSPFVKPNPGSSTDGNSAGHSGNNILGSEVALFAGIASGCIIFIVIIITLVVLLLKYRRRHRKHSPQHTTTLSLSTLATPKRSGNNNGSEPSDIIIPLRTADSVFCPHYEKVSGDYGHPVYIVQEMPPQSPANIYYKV

These are yes or no findings as the source states them, for the method shown. Some binding calls cover weakened binding; strength is not graded here.

One test deals with WT EFNB2 on Cho cells (UniProt P52799). The experiment in a line: flow cytometry on cells; only the binder purified. A general note: A flow cytometer gives signals particle by particle.
In another test the target is T1, WT EFNB3 on Cho cells (UniProt Q15768).
T1 sequence: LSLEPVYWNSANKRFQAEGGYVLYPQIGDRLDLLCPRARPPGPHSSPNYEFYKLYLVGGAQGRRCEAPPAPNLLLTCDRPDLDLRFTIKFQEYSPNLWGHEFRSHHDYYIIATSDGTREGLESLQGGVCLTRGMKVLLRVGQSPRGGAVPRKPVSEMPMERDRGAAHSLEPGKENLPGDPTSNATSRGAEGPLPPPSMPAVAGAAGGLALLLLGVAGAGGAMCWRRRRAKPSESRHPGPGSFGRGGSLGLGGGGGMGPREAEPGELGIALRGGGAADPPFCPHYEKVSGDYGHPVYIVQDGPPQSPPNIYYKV
The experiment in a line: flow cytometry on cells; only the binder purified.

B1: sEPHB3-hFc (Fc fusion, UniProt P54753)
chain: GCRALEETLMDTKWVTSELAWTSHPESGWEEVSGYDEAMNPIRTYQVCNVRESSQNNWLRTGFIWRRDVQRVYVELKFTVRDCNSIPNIPGSCKETFNLFYYEADSDVASASSPFWMENPYVKVDTIAPDESFSRLDAGRVNTKVRSFGPLSKAGFYLAFQDQGACMSLISVRAFYKKCASTTAGFALFPETLTGAEPTSLVIAPGTCIPNAVEVSVPLKLYCNGDGEWMVPVGACTCATGHEPAAKESQCRPCPPGSYKAKQGEGPCLPCPPNSRTTSPAASICTCHNNFYRADSDSADSACTTVPSPPRGVISNVNETSLILEWSEPRDLGGRDDLLYNVICKKCHGAGGASACSRCDDNVEFVPRQLGLTERRVHISHLLAHTRYTFEVQAVNGVSGKSPLPPRYAAVNITTNQAAPSEVPTLRLHSSSGSSLTLSWAPPERPNGVILDYEMKYFEKSEGIASTVTSQMNSVQLDGLRPDARYVVQVRARTVAGYGQYSRPAEFETTSERGSGAQQLQEQLPL
For the molecule B1, the binding result in the test with WT EFNB2 on Cho cells and with WT EFNB3 on Cho cells was “binds” each time.
